Patent US10428114B2 (SICHUAN UNIVERSITY, priority 2015, dated 2019)

Test: peptide made by a vendor
Details: whole synthesis, one disulfide bridge, sequence written open

CCRGDK(NAA)GPDC (CCRGDKGPDC)
purity (crude or final not stated): 85%
